Assay results: patent US20250129027A1 (APOGEE PHARMACEUTICALS, INC., priority 2023, published 2025)
Like-named read-outs stand apart in the source and are kept apart here. The structures given here were assigned with low confidence; some may be wrong.

Sequences of proteins named here, by UniProt entry; tags and fusion partners are left off.
UniProt O00519, whole entry: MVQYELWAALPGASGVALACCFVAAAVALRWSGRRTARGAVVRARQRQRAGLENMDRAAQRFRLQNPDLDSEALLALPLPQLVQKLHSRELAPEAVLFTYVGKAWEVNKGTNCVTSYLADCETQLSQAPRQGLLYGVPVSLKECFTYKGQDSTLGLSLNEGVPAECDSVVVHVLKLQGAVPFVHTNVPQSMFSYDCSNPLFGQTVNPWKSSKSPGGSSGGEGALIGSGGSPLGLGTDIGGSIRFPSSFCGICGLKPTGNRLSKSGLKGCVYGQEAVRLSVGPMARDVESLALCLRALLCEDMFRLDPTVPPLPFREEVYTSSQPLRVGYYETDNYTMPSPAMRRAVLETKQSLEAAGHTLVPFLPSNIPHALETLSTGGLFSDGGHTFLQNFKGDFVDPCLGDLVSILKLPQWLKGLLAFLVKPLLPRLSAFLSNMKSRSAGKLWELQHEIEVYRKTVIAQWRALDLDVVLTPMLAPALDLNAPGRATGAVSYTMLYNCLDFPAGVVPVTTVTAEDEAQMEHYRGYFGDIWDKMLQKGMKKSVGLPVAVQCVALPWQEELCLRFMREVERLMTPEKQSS
UniProt Q99685, whole entry: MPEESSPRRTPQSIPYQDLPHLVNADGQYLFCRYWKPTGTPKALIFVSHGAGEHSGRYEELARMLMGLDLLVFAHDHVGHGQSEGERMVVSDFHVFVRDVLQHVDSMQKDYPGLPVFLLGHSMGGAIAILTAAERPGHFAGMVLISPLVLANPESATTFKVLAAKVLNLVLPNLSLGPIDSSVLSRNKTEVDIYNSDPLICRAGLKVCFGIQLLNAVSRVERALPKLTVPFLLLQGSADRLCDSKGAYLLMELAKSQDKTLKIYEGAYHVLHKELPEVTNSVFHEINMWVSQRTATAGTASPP

Tests used:
[1] = target: human recombinant FAAH (Homo sapiens (Human), UniProt O00519); test: In vitro inhibition of FAAH activity (fluorescent inhibitor screening kit, AMC arachidonoyl amide); type: biochemical
[2] = target: human recombinant MAGL (Homo sapiens (Human), UniProt Q99685); test: In vitro inhibition of MAGL activity (inhibitor screening kit, 4-nitrophenylacetate); conditions: read-out: Inhibition on MAGL activity (IC50)

Structure (SMILES): COc1ccc(OC(=O)NC2CCCCCCC2)cc1-c1cncc(-c2nnco2)c1
- IC50 ([1]; FAAH, values as listed in Table 5): 0.11 µM
- IC50 ([1]; read-out: Inhibition on FAAH activity (IC50), human recombinant FAAH): 0.111 µM
- IC50 [2]: > 10 µM
